Consider two molecules from paper PMC12206918.

Amino acid sequences for entries named in this document (tags omitted). Residues count along the entry.
UniProt P80188, residues 21-198: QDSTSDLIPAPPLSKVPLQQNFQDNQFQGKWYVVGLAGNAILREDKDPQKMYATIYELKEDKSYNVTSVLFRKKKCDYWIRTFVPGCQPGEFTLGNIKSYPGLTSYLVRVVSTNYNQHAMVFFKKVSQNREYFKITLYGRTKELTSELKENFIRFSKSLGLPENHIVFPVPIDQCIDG

No constants are given. Whether binding was seen depends on the method and setting. In cells and extracts the contact can be indirect. Some entries that bind do so weakly or less than the wild type. For some assays here: Sequences can lack the tags named with a protein.

The target of test [1] is T1, Fn14-3FLAG overexpressed in HaCaT cells (LV-hTNFRSF12A-3FLAG-OE) (human) (UniProt Q9NP84).
T1 sequence: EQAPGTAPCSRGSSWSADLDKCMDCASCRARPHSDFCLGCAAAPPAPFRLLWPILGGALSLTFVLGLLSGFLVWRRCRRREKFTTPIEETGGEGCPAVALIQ
Nature of the test: co-IP; HaCaT cells overexpressing Fn14-3FLAG (lentivirus), stimulated with LCN2; Fn14 enriched with anti-Flag magnetic beads; blot for LCN2 and Fn14; only the binder purified.

Test [2] deals with T2, Fn14 (TNFRSF12A), endogenous in HaCaT cells (human (endogenous in HaCaT)) (UniProt Q9NP84).
T2 sequence: T1 sequence
The experiment in a line: co-IP; HaCaT cells stimulated with rmLCN2 for 48 h; total protein incubated with mouse anti-human Fn14 antibody on protein A/G magnetic beads; blot for LCN2 and Fn14; only the binder purified.

In the case of “LCN2 added to Fn14-3FLAG-overexpressing HaCaT cells (from UniProt P80188 21-198)”, in test [1], the binding result is listed as “binds”.

B1: recombinant mouse LCN2 (rmLCN2) (protein, UniProt P11672 21-200)
chain: QDSTQNLIPAPSLLTVPLQPDFRSDQFRGRWYVVGLAGNAVQKKTEGSFTMYSTIYELQENNSYNVTSILVRDQDQGCRYWIRTFVPSSRAGQFTLGNMHRYPQVQSYNVQVATTDYNQFAMVFFRKTSENKQYFKITLYGRTKELSPELKERFTRFAKSLGLKDDNIIFSVPTDQCIDN
For B1, in test [2], the binding result is given as “binds”.
